Test results taken from PubChem BioAssay AID248 (DTP/NCI, 2004).
The list does not hold the whole screen: it gathers tests that were run many times, whatever their T/C, doses with no T/C, and many T/C values between a quarter and a half above the control. Further doses and runs are listed elsewhere. T/C gives the treated animals as a percentage of the vehicle group. Some doses have a count of surviving animals in place of a T/C: the source holds a T/C of zero for them, seemingly a mark for toxic or unscored doses. Some survivor counts are full or nearly so, which does not show that the dose was tolerated: survival well below the control is almost never listed, so the zero probably covers shortened survival too. Survivors were counted at the toxicity check, usually on the fifth day, unless a day is given; later deaths do not show. Schedules are NCI's codes, read here as Q, the interval in days (D) or hours (H), X, the number of doses.

Tested on: L1210 leukemia ip in BDF1 mice, survival T/C
Test: NCI In Vivo Anticancer Drug Screen. Data for tumor model L1210 Leukemia (intraperitoneal) in B6D2F1 (BDF1) mice
Details: T/C endpoint: mean survival time, higher T/C = longer survival
[1] = dose: 100.0 mg/kg/injection, schedule: Q01DX001 (ip), vehicle: saline
[2] = dose: 200.0 mg/kg/injection, schedule: Q01DX001 (ip), vehicle: saline
[3] = dose: 400.0 mg/kg/injection, schedule: Q01DX001 (ip), vehicle: saline

O=[N+]([O-])C(Cl)(Cl)C(Cl)(Cl)[N+](=O)[O-]
survivor count (dose: 25.0 mg/kg/injection, schedule: Q04DX003 (ip), vehicle: other): 0 of 6 | survivor count (dose: 50.0 mg/kg/injection, schedule: Q04DX003 (ip), vehicle: other): 0 of 6 | survivor count [1]: 1 of 4 | survivor count (dose: 100.0 mg/kg/injection, schedule: Q04DX003 (ip), vehicle: other): 0 of 6 | survivor count [2]: 1 of 4 | survivor count [3]: 1 of 4

Oc1ccccc1O.[O-]c1ccccc1[O-].[O-]c1ccccc1[O-].[O]=[V+2]
survivor count (dose: 75.0 mg/kg/injection, schedule: Q01DX009 (ip), vehicle: saline): 2 of 6 | survivor count (dose: 115.0 mg/kg/injection, schedule: Q04DX003 (ip), vehicle: saline): 0 of 6 | survivor count (dose: 170.0 mg/kg/injection, schedule: Q04DX003 (ip), vehicle: saline): 0 of 6

O=S(=O)(O)c1ccc(CCCCCCCl)cc1
survivor count (dose: 400.0 mg/kg/injection, schedule: Q04DX002 (ip), vehicle: saline): 3 of 3

CC1CCC(Oc2nc3c(c(=O)n(C)c(=O)n3C)n2C)CC1 (configuration not stated)
survivor count (dose: 400.0 mg/kg/injection, schedule: Q01DX001 (ip), vehicle: other): 2 of 4

NC(=S)N/N=C/c1ccccc1
survivor count (dose: 300.0 mg/kg/injection, schedule: Q01DX001 (ip), vehicle: other): 2 of 6

C=CC[S][Pb]([c]1ccccc1)([c]1ccccc1)[c]1ccccc1
survivor count (dose: 12.0 mg/kg/injection, schedule: Q01DX009 (ip), vehicle: Klucel (hydroxypropylcellulose) (HPC)): 4 of 6 | survivor count (dose: 12.5 mg/kg/injection, schedule: Q01DX009 (ip), vehicle: Klucel (hydroxypropylcellulose) (HPC)): 3 of 3 | survivor count (dose: 25.0 mg/kg/injection, schedule: Q01DX009 (ip), vehicle: Klucel (hydroxypropylcellulose) (HPC)): 2 of 3 | survivor count (dose: 50.0 mg/kg/injection, schedule: Q01DX009 (ip), vehicle: Klucel (hydroxypropylcellulose) (HPC)): 0 of 3 | survivor count (dose: 50.0 mg/kg/injection, schedule: Q04DX002 (ip), vehicle: Klucel (hydroxypropylcellulose) (HPC)): 2 of 3 | survivor count (dose: 100.0 mg/kg/injection, schedule: Q04DX002 (ip), vehicle: Klucel (hydroxypropylcellulose) (HPC)): 0 of 3 | survivor count (dose: 200.0 mg/kg/injection, schedule: Q04DX002 (ip), vehicle: Klucel (hydroxypropylcellulose) (HPC)): 0 of 3 | survivor count (dose: 400.0 mg/kg/injection, schedule: Q04DX002 (ip), vehicle: Klucel (hydroxypropylcellulose) (HPC)): 0 of 3

C[N+]1(C)C2CC(=O)CC1C1CC12 (configuration not stated) (tested in a mixture with another compound)
survivor count (dose: 400.0 mg/kg/injection, schedule: Q04DX003 (ip), vehicle: saline): 3 of 6

CC(CCN1CCOCC1)(CNC1=NCCN1)c1cccc2ccccc12 (configuration not stated)
survivor count (dose: 100.0 mg/kg/injection, schedule: Q01DX009 (ip), vehicle: saline with Tween-80): 0 of 6 | survivor count (dose: 200.0 mg/kg/injection, schedule: Q01DX009 (ip), vehicle: saline with Tween-80): 0 of 6 | survivor count (dose: 400.0 mg/kg/injection, schedule: Q01DX009 (ip), vehicle: saline with Tween-80): 0 of 6

O=CO.[Cd]
survivor count (dose: 10.0 mg/kg/injection, schedule: Q01DX001 (ip), vehicle: saline): 3 of 6 | survivor count (dose: 20.0 mg/kg/injection, schedule: Q01DX001 (ip), vehicle: saline): 0 of 6 | survivor count (dose: 40.0 mg/kg/injection, schedule: Q01DX001 (ip), vehicle: saline): 0 of 6 | survivor count (dose: 80.0 mg/kg/injection, schedule: Q01DX001 (ip), vehicle: saline): 0 of 6 | survivor count [1]: 0 of 6 | survivor count [2]: 0 of 6 | survivor count [3]: 0 of 6

NNC(=O)NC(=O)NN
survivor count [3]: 2 of 6

Cn1cnc2c(C#N)c(C#N)nn2c1=O
survivor count (dose: 400.0 mg/kg/injection, schedule: Q01DX001 (ip), vehicle: carboxymethylcellulose (CMC)): 0 of 4

CCS[S+](CC)CC
survivor count (dose: 25.0 mg/kg/injection, schedule: Q01DX009 (ip), vehicle: saline with Tween-80): 1 of 3 | survivor count (dose: 50.0 mg/kg/injection, schedule: Q01DX009 (ip), vehicle: other): 0 of 3 | survivor count (dose: 100.0 mg/kg/injection, schedule: Q01DX009 (ip), vehicle: other): 0 of 3 | survivor count (dose: 200.0 mg/kg/injection, schedule: Q01DX009 (ip), vehicle: other): 0 of 3
